According to patent publication US20250340592A1, “MAMMALIAN MILK-DERIVED PEPTIDES WITH ANTIMICROBIAL ACTIVITY” (MATRUBIALS INC., priority 2022, published 2025):
Some results were stated once for a whole list of compounds, not compound by compound. At least one peptide structure holds a part that was inferred or is arguable (an end, a ring closure or a residue). Where no end group is shown, it is not given here.

Tests used:
[1] = tested on: vaginal epithelial cells (VK2/E6E7); assay: calcein dye cytotoxicity assay; format: cell-based; details: 18 hours incubation, calcein fluorescence
cervical cells (HeLa) = assay: calcein dye cytotoxicity assay; format: cell-based; details: 18 hours incubation, calcein fluorescence

| Sequence | peptide concentration at which cell viability is retained [1] | peptide concentration at which cell viability is retained (cervical cells (HeLa)) |
| --- | --- | --- |
| RGPPKSCRKRD [M14, RGPPKSCRKRD] | up to 20 mg/ml | up to 20 mg/ml |
| RPRIPKASAK [M6, RPRIPKASAK] | up to 20 mg/ml | up to 20 mg/ml |
